Reference: PubChem BioAssay AID720505 (Drosophila RNAi Screening Center, 2013)

Assay: 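Genes needed for store-operated calcium entry in fly cells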 (primary screen)
Cells: Drosophila S2R+ cells
Reagent: long dsRNA against Drosophila genes
Challenge: thapsigargin (2 µM) in calcium-free buffer to empty internal stores, then 2 mM calcium added back
Read-out: 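Stores emptied by 2 µM thapsigargin without calcium, then 2 mM calcium re-added; fluo-4 fluorescence followed by FLIPR in 384-well plates, per-well averaged endpoint, raw; two screen passes, some wells retested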
Direction: calcium signal and retest calcium signal: higher = more calcium entry after store depletion
Active means: 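About 1500 genes called as lowering calcium entry, by varying amounts, judged against per-plate control wells with STIM1 as positive and Rho1 as negative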
Meaning of the calls: active = called as lowering calcium entry; inactive = not called
The deposit covers about 20,000 reagents; below is an unselected part of those that have a named target and a result. In the full data, about 2,100 (10%) are marked active. 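Raw plate signals without normalisation; calls rest on control-based scores that were not deposited; replicate 2 separates called from uncalled poorly.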 Unmarked entries are inactive. The numbers tell different reagents against one gene apart. A plus sign joins genes that one reagent is predicted to hit. Not stated in the record: the amount of reagent, the time to read-out.

CG16820 showed calcium signal, replicate 1 = 114; calcium signal, replicate 2 = 92.9.
Silencing of CG33768 gave: calcium signal, replicate 1 = 106; calcium signal, replicate 2 = 138.
CG33998 gave calcium signal, replicate 1 = 114; calcium signal, replicate 2 = 101.
With knock-down of Pbp95, the screen gave calcium signal, replicate 1 = 121; calcium signal, replicate 2 = 173.
Depletion of CG6660 gave: calcium signal, replicate 1 = 153; calcium signal, replicate 2 = 209.
Knock-down of Axud1 gave: calcium signal, replicate 1 = 164; calcium signal, replicate 2 = 169.
For RhoGEF2, the values are calcium signal, replicate 1 = 71.7 (active); calcium signal, replicate 2 = 163.
With knock-down of Dpy-30L1 the results were calcium signal, replicate 1 = 102; calcium signal, replicate 2 = 97.
Rbp4 showed calcium signal, replicate 1 = 167; calcium signal, replicate 2 = 199.
Prim2 gave calcium signal, replicate 1 = 118; calcium signal, replicate 2 = 91.
hebe #1 scored calcium signal, replicate 1 = 115; calcium signal, replicate 2 = 143.
hebe #2 showed calcium signal, replicate 1 = 199; calcium signal, replicate 2 = 210; retest calcium signal, replicate 1 = 79.2; retest calcium signal, replicate 2 = 125.
hebe #3 scored calcium signal, replicate 1 = 128; calcium signal, replicate 2 = 101.
CG3655 #1 showed calcium signal, replicate 1 = 84.9; calcium signal, replicate 2 = 145.
CG3655 #2 scored calcium signal, replicate 1 = 96.9; calcium signal, replicate 2 = 133.
With knock-down of CG3655 #3 the results were calcium signal, replicate 1 = 104; calcium signal, replicate 2 = 154.
For gNacalpha, the values are calcium signal, replicate 1 = 164; calcium signal, replicate 2 = 99.7.
For Fibp the deposit lists calcium signal, replicate 1 = 149; calcium signal, replicate 2 = 89.5.
Knock-down of eEF1alpha2 came out at: calcium signal, replicate 1 = 103; calcium signal, replicate 2 = 132.
CG15803 scored calcium signal, replicate 1 = 145; calcium signal, replicate 2 = 172.
Knock-down of ash2 resulted in: calcium signal, replicate 1 = 211; calcium signal, replicate 2 = 206.
Silencing of mbc gave: calcium signal, replicate 1 = 140; calcium signal, replicate 2 = 110.
CG33673 scored calcium signal, replicate 1 = 66.5; calcium signal, replicate 2 = 155.
CR42785 scored calcium signal, replicate 1 = 80.6; calcium signal, replicate 2 = 90.3.
Tcs5 scored calcium signal, replicate 1 = 112; calcium signal, replicate 2 = 102.
CG34235 + CG30058 + CG34312 showed calcium signal, replicate 1 = 64.2; calcium signal, replicate 2 = 175.
Knock-down of Toll-4 resulted in: calcium signal, replicate 1 = 111; calcium signal, replicate 2 = 120.
Depletion of CG31898 resulted in: calcium signal, replicate 1 = 183; calcium signal, replicate 2 = 87.5.

2 entries from above, ordered by “calcium signal, replicate 2”, descending.
CG6660 — calcium signal, replicate 1 = 153; calcium signal, replicate 2 = 209
Pbp95 — calcium signal, replicate 1 = 121; calcium signal, replicate 2 = 173
